Laboratory results: the supplement of paper PMC12067093, “Discovery and optimisation of a covalent ligand for TRIM25 and its application to targeted protein ubiquitination” (Chemical Science, 2025)
The list shows a part of the results.

Sequences of proteins named here, by UniProt entry; tags and fusion partners are left off. A change or cut given only in a name is not applied to a line headed by its entry.
UniProt Q96JB2: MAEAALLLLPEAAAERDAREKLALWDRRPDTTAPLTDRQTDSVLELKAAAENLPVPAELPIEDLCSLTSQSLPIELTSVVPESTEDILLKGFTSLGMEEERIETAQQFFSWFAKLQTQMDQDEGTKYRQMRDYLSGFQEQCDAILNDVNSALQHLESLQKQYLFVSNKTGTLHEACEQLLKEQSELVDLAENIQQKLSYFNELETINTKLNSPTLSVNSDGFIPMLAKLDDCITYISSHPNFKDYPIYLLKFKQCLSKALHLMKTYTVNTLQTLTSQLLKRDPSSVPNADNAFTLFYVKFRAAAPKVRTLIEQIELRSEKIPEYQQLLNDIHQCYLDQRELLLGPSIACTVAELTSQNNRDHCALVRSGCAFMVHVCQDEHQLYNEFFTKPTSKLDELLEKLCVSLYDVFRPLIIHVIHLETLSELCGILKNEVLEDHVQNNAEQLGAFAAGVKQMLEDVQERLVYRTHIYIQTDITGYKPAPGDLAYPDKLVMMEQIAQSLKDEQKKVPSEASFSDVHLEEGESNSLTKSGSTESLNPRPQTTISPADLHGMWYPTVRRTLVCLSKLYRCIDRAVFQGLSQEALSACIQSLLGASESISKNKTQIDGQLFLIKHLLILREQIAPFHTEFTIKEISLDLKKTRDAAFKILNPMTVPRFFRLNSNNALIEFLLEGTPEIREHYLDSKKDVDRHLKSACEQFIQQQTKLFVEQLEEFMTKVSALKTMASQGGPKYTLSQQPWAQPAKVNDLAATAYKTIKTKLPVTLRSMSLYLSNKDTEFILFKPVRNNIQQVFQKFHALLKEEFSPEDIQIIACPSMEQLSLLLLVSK
UniProt P53618: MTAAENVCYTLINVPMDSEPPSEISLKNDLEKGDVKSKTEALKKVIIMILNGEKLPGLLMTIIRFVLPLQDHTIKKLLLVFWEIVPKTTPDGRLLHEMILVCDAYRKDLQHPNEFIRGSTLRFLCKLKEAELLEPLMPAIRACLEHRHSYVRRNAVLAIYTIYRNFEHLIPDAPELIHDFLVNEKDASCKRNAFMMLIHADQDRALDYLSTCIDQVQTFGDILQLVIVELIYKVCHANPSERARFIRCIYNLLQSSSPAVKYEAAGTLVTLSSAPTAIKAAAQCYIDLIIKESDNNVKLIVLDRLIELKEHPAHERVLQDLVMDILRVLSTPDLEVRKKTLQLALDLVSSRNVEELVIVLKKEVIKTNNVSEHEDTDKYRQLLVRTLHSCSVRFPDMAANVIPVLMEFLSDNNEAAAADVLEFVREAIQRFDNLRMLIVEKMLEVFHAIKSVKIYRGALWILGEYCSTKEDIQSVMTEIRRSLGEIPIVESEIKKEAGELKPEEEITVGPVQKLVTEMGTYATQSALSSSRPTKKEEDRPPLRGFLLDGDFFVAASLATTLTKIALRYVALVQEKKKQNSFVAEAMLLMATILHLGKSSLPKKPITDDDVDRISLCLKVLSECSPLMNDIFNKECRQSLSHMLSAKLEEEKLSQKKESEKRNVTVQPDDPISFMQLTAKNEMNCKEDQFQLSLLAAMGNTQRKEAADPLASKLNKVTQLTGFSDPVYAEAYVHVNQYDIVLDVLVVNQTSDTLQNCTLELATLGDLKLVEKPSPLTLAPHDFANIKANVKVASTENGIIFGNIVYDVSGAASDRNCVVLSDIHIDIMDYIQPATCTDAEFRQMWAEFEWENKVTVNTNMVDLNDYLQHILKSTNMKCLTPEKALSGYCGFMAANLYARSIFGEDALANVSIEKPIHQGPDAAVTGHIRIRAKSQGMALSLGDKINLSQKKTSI
UniProt Q96BR5: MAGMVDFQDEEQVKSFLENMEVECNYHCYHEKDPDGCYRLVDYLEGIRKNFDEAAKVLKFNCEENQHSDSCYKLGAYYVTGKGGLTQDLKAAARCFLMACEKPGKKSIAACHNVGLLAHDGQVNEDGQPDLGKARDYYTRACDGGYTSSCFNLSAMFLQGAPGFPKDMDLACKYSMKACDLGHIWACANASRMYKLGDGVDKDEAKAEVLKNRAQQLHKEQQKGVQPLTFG
UniProt P09543: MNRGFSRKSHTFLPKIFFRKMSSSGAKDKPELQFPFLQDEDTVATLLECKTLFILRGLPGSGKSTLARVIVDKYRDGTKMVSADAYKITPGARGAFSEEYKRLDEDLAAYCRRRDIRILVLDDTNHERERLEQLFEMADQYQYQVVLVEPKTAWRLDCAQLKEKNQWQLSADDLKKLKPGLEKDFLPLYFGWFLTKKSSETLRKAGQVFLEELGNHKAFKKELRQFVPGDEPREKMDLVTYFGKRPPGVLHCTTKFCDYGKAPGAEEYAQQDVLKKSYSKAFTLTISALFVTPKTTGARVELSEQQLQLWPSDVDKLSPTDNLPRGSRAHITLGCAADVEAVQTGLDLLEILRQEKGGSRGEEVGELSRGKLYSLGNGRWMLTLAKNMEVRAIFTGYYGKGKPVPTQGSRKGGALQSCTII
UniProt P62633: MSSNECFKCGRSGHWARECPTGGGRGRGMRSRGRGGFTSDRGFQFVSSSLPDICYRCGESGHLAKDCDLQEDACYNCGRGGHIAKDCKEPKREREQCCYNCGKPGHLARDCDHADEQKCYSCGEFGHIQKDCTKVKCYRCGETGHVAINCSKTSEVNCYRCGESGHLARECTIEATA
UniProt P21964: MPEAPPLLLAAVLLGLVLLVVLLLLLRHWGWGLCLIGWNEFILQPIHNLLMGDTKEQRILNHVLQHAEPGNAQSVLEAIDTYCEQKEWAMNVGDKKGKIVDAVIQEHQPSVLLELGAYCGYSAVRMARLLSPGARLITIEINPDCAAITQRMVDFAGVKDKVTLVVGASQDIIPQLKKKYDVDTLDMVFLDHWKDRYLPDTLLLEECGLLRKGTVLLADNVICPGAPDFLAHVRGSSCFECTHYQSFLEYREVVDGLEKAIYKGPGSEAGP
UniProt Q9UBI1, whole entry, looked up: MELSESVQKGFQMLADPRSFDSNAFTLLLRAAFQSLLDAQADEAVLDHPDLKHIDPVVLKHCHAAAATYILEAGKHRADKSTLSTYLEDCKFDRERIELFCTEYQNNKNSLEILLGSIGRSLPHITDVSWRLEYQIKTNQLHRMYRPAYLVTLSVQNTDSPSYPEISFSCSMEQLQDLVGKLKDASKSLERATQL
UniProt Q9BT09: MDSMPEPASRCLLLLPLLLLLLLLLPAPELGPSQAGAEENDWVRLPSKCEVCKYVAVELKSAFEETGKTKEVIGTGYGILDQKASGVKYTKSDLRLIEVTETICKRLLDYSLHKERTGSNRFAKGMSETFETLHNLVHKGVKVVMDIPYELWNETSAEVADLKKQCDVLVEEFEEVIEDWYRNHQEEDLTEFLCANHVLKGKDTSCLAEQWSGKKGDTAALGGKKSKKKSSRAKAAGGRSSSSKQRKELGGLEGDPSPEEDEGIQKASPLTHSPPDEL
UniProt Q9UP83: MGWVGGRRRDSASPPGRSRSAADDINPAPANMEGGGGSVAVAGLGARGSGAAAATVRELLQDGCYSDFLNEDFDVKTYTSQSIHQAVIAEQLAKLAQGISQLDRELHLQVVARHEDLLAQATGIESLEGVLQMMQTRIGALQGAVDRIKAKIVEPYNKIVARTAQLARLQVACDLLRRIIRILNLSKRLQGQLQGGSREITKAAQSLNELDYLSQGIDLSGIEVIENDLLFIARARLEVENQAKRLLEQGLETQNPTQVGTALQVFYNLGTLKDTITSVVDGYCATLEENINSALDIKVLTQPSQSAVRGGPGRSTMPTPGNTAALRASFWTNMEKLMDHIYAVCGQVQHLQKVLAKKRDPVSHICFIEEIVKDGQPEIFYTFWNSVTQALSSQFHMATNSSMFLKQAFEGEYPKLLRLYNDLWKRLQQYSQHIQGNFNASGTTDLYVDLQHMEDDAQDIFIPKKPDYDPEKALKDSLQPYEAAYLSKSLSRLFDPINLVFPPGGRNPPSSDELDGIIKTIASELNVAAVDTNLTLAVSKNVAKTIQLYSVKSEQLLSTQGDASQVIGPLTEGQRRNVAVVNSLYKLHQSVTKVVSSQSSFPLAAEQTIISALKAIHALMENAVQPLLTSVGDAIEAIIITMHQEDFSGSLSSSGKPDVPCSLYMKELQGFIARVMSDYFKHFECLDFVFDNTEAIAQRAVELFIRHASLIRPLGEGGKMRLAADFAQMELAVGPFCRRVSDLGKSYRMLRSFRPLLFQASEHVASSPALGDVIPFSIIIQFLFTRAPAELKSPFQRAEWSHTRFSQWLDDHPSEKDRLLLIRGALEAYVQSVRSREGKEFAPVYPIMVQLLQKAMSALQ
UniProt Q9NRP2: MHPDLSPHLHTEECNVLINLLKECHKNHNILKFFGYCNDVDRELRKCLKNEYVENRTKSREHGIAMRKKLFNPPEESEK
UniProt P53621: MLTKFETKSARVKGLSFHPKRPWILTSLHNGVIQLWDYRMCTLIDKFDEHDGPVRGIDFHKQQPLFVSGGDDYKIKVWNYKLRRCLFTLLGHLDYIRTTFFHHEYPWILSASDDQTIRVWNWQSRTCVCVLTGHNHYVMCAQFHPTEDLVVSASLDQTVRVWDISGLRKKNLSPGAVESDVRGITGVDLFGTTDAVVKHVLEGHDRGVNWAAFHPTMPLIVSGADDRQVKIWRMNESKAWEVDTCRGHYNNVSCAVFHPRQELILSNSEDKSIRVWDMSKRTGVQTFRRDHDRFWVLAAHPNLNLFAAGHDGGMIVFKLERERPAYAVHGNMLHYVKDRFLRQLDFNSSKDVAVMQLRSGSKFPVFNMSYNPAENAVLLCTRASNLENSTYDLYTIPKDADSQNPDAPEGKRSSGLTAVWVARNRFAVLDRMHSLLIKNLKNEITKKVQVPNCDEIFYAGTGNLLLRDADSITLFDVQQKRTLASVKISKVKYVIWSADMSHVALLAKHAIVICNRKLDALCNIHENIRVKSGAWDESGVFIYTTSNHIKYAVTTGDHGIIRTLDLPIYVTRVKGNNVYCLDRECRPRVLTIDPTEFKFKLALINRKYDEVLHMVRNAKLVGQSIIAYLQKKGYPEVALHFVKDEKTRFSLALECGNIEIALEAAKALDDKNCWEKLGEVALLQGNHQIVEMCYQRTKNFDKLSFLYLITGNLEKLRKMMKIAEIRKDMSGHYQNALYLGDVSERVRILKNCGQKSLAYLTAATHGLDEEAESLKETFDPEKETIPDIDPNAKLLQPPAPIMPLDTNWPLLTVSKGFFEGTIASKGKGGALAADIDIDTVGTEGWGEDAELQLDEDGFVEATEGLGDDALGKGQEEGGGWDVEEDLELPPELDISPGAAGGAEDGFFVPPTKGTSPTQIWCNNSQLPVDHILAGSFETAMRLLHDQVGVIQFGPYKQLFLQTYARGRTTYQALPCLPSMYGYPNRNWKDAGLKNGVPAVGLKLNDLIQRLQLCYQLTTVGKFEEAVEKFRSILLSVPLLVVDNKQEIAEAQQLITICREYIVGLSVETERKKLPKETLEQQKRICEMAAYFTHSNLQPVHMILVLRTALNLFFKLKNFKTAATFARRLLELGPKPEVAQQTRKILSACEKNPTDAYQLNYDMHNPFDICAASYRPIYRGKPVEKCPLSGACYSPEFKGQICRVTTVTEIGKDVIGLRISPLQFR
UniProt O95628: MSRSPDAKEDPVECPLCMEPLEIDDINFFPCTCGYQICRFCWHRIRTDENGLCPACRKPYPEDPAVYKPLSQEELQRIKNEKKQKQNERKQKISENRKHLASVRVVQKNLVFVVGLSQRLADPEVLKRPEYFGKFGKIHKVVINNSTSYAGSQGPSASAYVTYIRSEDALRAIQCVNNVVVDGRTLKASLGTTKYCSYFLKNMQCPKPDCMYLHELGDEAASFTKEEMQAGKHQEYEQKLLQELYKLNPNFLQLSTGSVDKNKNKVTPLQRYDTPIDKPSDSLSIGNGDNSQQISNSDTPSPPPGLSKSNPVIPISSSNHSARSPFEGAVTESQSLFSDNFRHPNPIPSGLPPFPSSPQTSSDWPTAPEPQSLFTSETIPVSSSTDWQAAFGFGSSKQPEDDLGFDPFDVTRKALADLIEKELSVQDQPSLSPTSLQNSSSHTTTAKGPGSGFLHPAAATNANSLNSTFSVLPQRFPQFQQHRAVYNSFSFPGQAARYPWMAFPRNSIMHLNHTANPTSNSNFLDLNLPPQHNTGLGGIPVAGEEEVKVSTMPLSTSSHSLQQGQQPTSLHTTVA
UniProt Q9Y2B0: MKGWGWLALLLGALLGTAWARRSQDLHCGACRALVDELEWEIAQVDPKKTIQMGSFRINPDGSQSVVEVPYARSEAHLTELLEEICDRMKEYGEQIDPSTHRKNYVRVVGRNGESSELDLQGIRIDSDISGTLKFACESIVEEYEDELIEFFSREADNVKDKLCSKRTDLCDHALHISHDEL

Compound: CC1Cc2ccccc2N1C(=O)C1CCCN(C1)C(=O)CCl (mixture of isomers) [TRIM25 ligand 11 (diastereomer mixture)]
Assay: probe-labelled cysteine peptide fold change vs DMSO (competition) (log2 fold change); higher = less target engagement (more negative = stronger competition)
Conditions: THP-1, incubation time: 4 h
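Note: competitive chemoproteomic profiling in live THP-1 cells with an iodoacetamide desthiobiotin (IA-DTB) probe, comparing probe-labelled peptide intensities in compound-treated cells against DMSO-treated controls.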

| Target | probe-labelled cysteine peptide fold change (10 µM) | probe-labelled cysteine peptide fold change (50 µM) |
| --- | --- | --- |
| COG3_Q96JB2_334_IPEYQQLLNDIHQCYLDQR (UniProt Q96JB2) | 0.169 | 0.116 |
| COPB1_P53618_284_AAAQCYIDLIIK (UniProt P53618) | 0.0398 | 0.0921 |
| COPB2_P35606_56_TFEVCDLPVR (UniProt P35606) | 0.048 | 0.162 |
| COA7_Q96BR5_187_ACDLGHIWACANASR (UniProt Q96BR5) | -0.137 | -0.168 |
| COPB2_P35606_221+234_TCVQTLEGHAQNVSCASFHPELPIIITGSEDGTVR (UniProt P35606) | 0.238 | -0.14 |
| CNP_P09543_49_DKPELQFPFLQDEDTVATLLECK (UniProt P09543) | -0.121 | -0.0575 |
| CNBP_P62633_57_CGESGHLAK (UniProt P62633) | 0.0116 | 0.0248 |
| COMT_P21964_238_GSSCFECTHYQSFLEYR (UniProt P21964) | 0.0434 | 0.014 |
| COPB1_P53618_888_ALSGYCGFMAANLYAR (UniProt P53618) | -0.151 | -0.00451 |
| CNTRL_Q7Z7A1_639_GQATQAQNECR (UniProt Q7Z7A1) | -0.0299 | 0.264 |
| COMMD3_Q9UBI1_90_STLSTYLEDCK (UniProt Q9UBI1) | 0.0342 | 0.0602 |
| CNPY3_Q9BT09_206_DTSCLAEQWSGKK (UniProt Q9BT09) | -0.163 | -0.016 |
| CNPY3_Q9BT09_194_NHQEEDLTEFLCANHVLK (UniProt Q9BT09) | -0.0334 | -0.00404 |
| COG5_Q9UP83_366_KRDPVSHICFIEEIVK (UniProt Q9UP83) | 0.187 | 0.00813 |
| CMC2_Q9NRP2_14_MHPDLSPHLHTEECNVLINLLK (UniProt Q9NRP2) | 0.0385 | 0.0806 |
| COLGALT1_Q8NBJ5_369_ALQAQEIECR (UniProt Q8NBJ5) | 0.0982 | 0.267 |
| COPG1_Q9Y678_735_DCDPTTGETDDEGYEDEYVLEDLEVTVADHIQK (UniProt Q9Y678) | 0.0208 | -0.00395 |
| CNDP2_Q96KP4_222_GICYFFIEVECSNK (UniProt Q96KP4) | 0.368 | 0.367 |
| COA7_Q96BR5_24_SFLENMEVECNYHCYHEK (UniProt Q96BR5) | -0.12 | -0.238 |

Part of the list above, in CSV form:
Target,probe-labelled cysteine peptide fold change (10 µM),probe-labelled cysteine peptide fold change (50 µM)
COPB1_P53618_284_AAAQCYIDLIIK (UniProt P53618),0.0398,0.0921
COA7_Q96BR5_187_ACDLGHIWACANASR (UniProt Q96BR5),-0.137,-0.168
CNP_P09543_49_DKPELQFPFLQDEDTVATLLECK (UniProt P09543),-0.121,-0.0575
CNBP_P62633_57_CGESGHLAK (UniProt P62633),0.0116,0.0248
COPB1_P53618_888_ALSGYCGFMAANLYAR (UniProt P53618),-0.151,-0.00451
COMMD3_Q9UBI1_90_STLSTYLEDCK (UniProt Q9UBI1),0.0342,0.0602
CNPY3_Q9BT09_206_DTSCLAEQWSGKK (UniProt Q9BT09),-0.163,-0.016
CMC2_Q9NRP2_14_MHPDLSPHLHTEECNVLINLLK (UniProt Q9NRP2),0.0385,0.0806
COLGALT1_Q8NBJ5_369_ALQAQEIECR (UniProt Q8NBJ5),0.0982,0.267

(cont.)

| Target | probe-labelled cysteine peptide fold change (10 µM) | probe-labelled cysteine peptide fold change (50 µM) |
| --- | --- | --- |
| CNOT1_A5YKK6_972_DYPQYCQHLASISHFMQFPHHLQEYIEYGQQSR (UniProt A5YKK6) | -0.058 | 0.282 |
| COPA_P53621_655_FSLALECGNIEIALEAAK (UniProt P53621) | 0.0195 | 0.00176 |
| COG6_Q9Y2V7_354_HVTTQGVEENIQEVVGHITEGVCRPLK (UniProt Q9Y2V7) | 0.137 | -0.0512 |
| COG5_Q9UP83_64_ELLQDGCYSDFLNEDFDVK (UniProt Q9UP83) | 0.0498 | 0.00309 |
| COMT_P21964_223_KGTVLLADNVICPGAPDFLAHVR (UniProt P21964) | 0.0121 | 0.0339 |
| COPB2_P35606_689_CQFGLAQECLHHAQDYGGLLLLATASGNANMVNK (UniProt P35606) | 0.0724 | 0.143 |
| COPG1_Q9Y678_516_CVMDDDNEVRDR (UniProt Q9Y678) | 0.0281 | 0.0553 |
| COPG1_Q9Y678_516_CVMDDDNEVR (UniProt Q9Y678) | 0.0615 | 0.0379 |
| COPS4_Q9BT78_378_QIQSLCFQVNNLLEK (UniProt Q9BT78) | -0.134 | 0.141 |
| CNOT4_O95628_175_AIQCVNNVVVDGR (UniProt O95628) | 0.0992 | 0.172 |
| COA7_Q96BR5_100_CFLMACEK (UniProt Q96BR5) | -0.056 | 0.083 |
| CNPY2_Q9Y2B0_86_SEAHLTELLEEICDR (UniProt Q9Y2B0) | -0.0385 | 0.0886 |
| COPG1_Q9Y678_44_CAHILTK (UniProt Q9Y678) | -0.0958 | 0.0117 |
| COMT_P21964_223_GTVLLADNVICPGAPDFLAHVR (UniProt P21964) | 0.021 | -0.00178 |
| COPB1_P53618_623_VLSECSPLMNDIFNK (UniProt P53618) | -0.0798 | 0.129 |
| COPA_P53621_41_MCTLIDK (UniProt P53621) | 0.285 | 0.306 |
| COMT_P21964_83_ILNHVLQHAEPGNAQSVLEAIDTYCEQK (UniProt P21964) | 0.0541 | -0.00479 |
| COMMD3_Q9UBI1_62_HCHAAAATYILEAGK (UniProt Q9UBI1) | 0.233 | 0.0397 |
| CLUH_O75153_762_DCMEHAVLPVDGATLAEVMR (UniProt O75153) | 0.127 | -0.000484 |
